These are yes or no findings as the source states them, for the method shown. Some entries that bind do so weakly or less than the wild type.
Columns and labels:
[1] = target: T1, Matriptase (soluble enzyme, form not stated) (human) (UniProt Q9Y5Y6); assay: competition ELISA, HAI-1 titrated from 2 µg/ml against biotinylated MT-SP1, capture on sc95/96-coated plate
T1 sequence: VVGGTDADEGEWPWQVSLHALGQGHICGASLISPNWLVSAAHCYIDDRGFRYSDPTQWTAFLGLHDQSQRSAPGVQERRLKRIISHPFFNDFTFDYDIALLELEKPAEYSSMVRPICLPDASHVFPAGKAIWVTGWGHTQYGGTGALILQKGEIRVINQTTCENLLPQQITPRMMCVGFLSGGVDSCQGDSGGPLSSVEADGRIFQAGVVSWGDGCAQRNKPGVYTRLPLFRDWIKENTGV

[2] = target: T1, Matriptase (soluble enzyme, form not stated) (human); assay: competition ELISA: 125 ng/ml biotinylated MTSP1 pre-incubated 1 hour with titrated HAI-1, then transferred to a sc95/96 coated plate, bound MTSP detected with SA-pod; competitor: plate-coated sc95/96

binding [1]: binds
binding [2]: binds
B1: HAI-1 (soluble, as titrated in the competition assay) (other, UniProt O43278 36-465, looked up)
chain: GPPPAPPGLPAGADCLNSFTAGVPGFVLDTNASVSNGATFLESPTVRRGWDCVRACCTTQNCNLALVELQPDRGEDAIAACFLINCLYEQNFVCKFAPREGFINYLTREVYRSYRQLRTQGFGGSGIPKAWAGIDLKVQPQEPLVLKDVENTDWRLLRGDTDVRVERKDPNQVELWGLKEGTYLFQLTVTSSDHPEDTANVTVTVLSTKQTEDYCLASNKVGRCRGSFPRWYYDPTEQICKSFVYGGCLGNKNNYLREEECILACRGVQGGPLRGSSGAQATFPQGPSMERRHPVCSGTCQPTQFRCSNGCCIDSFLECDDTPNCPDASDEAACEKYTSGFDELQRIHFPSDKGHCVDLPDTGLCKESIPRWYYNPFSEHCARFTYGGCYGNKNNFEEEQQCLESCRGISKKDVFGLRREIPIPSTGSVE
